Chains of the proteins cited; added tags and fusions are not shown. Lines headed by an entry give the natural chain unless they say otherwise; changes in a name come on top.
UniProt Q03431: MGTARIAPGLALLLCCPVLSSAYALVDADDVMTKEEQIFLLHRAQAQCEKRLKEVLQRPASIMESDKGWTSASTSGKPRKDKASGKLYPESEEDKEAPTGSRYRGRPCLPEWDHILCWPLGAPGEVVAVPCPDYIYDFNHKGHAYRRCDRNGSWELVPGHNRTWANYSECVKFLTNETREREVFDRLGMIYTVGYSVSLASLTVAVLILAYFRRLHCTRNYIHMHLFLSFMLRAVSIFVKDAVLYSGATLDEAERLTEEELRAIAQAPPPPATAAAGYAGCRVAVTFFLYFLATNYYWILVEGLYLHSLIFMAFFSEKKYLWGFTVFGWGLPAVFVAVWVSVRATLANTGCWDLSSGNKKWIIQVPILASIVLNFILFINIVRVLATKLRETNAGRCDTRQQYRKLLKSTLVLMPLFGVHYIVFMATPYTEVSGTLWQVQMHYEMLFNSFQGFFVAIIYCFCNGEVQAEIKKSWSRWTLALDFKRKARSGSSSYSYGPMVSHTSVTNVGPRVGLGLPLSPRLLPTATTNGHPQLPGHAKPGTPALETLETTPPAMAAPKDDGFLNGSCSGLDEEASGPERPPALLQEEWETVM

The whole screen tested about 410,000 compounds, of which about 310 (0.076%) were called active. The inconclusive results got no clear call from the source; some entries with a clear call stand among them for comparison. The call rests on the fitted dose curve; in most records, active means well fitted activation curve with a large enough effect; inconclusive means small, poorly fitted or top-dose-only effect, or another doubt; inactive means no such curve, though single readings can be large or run the other way. Potencies of inconclusive entries are doubtful fits and often do not repeat.
These compounds were tested against Parathyroid hormone/parathyroid hormone-related peptide receptor (Homo sapiens) (UniProt Q03431) (assay: qHTS for PTHR1 Agonists: Primary Screen). Details: HEK293 GP2 PTHR1 cells, GloSensor cAMP luminescence, 1 h; activation: at 115 µM (top of the series) unless noted; series mostly up to 115 µM.
In short: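 HEK-293-derived GP2 cells expressing PTHR1 and a GloSensor cAMP reporter, 3,000/well, plated overnight, given luciferin plus IBMX (each 0.5 mM as added) for 1 h at 37 °C, then compound for 1 h at 37 °C. Luminescence was read after 15 min at room temperature.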
In the case of `CC1CN(c2ccc(Cl)cc2)c2nc3c(c(=O)[nH]c(=O)n3C)n2C1` (configuration not stated), the Potency is reported as inconclusive: 28.2 µM [activator, single point].
For `Cc1oc2c(cc(NS(=O)(=O)c3ccc(F)cc3)c3ccccc32)c1C(=O)OCc1ccccc1`, the “outcome” value was “inactive”.
In the case of `Nc1nc(SCC(=O)N2CCCC2)[nH]c(=O)c1NC(=O)c1cccs1`, the Potency is reported as inconclusive: 126 µM [activator, single point].
`Cc1ccsc1C(C(=O)NC1CCCCC1)N(C(=O)Cc1cccs1)C1CC1` (configuration not stated) was tested, and the Potency was inconclusive: 6.31 µM [activator, full curve, poor fit].
`O=C1NC[C@H](CCCCN2C[C@H](Cc3ccc(O)cc3)N(CCc3ccccc3)C(=O)C2=O)N(CC2CCCCC2)C1=O` was tested, and the Potency was inconclusive: 158 µM [activator, single point].
With `CCCC(=O)N1CCC1(C)C(=O)NS(=O)(=O)c1ccc(C)cc1` (configuration not stated) the Potency was inconclusive: 31.6 µM [activator, single point].
`O=C(COc1ccc(S(=O)(=O)NC2CCCCC2)cc1Cl)Nc1ccc2c(c1)OCO2` was tested, and the Potency was inconclusive: 39.8 µM [activator, single point].
With `CC1CCCN(CCC(=O)Nc2ccc(Br)cc2)C1` (configuration not stated) the “outcome” value was “inactive [at 57.5 µM]”.
With `COc1cc(OC)cc(C(=O)NC(C(=O)Nc2ccc3c(c2)OCCO3)C(C)C)c1` (configuration not stated) the “outcome” value was “inactive”.
For `O=C(Nc1ccc(N2CCOCC2)cc1)C1CCN(S(=O)(=O)Cc2ccccc2)CC1`, the Potency was inconclusive: 35.5 µM [activator, single point].
In the case of `NNC(=O)CSc1ncc(-c2ccccc2)[nH]1`, the Potency is reported as inconclusive: 44.7 µM [activator, partial curve, poor fit].
In the case of `COc1ccc(N/C=C2\CCc3ccccc3C2=O)cc1`, the “activation” value is reported as inactive: -41%.
With `COc1ccc([C@H]2CC(=O)C=C(c3ccc(C(=O)O)cc3)C2)cc1OC` the Potency was inconclusive: 70.8 µM [activator, partial curve, poor fit].
In the case of `Cc1sc2ncn(CCn3cnc4sc(C)c(C)c4c3=O)c(=O)c2c1C`, the “activation” value is reported as inactive: -18.3% [at 57.5 µM].
For `CCN1CCN(c2ncnc3scc(-c4ccc(C)cc4)c23)CC1`, the activation was inconclusive: 34.2% [activator].
With `Cc1ccsc1C(=O)N(CC(C)C)c1c(N)n(Cc2ccccc2)c(=O)[nH]c1=O` the Potency was inconclusive: 1.12 µM [activator, full curve].
`O=C(O)CSc1cccc2cccnc12` was tested, and the Potency was inconclusive: 79.4 µM [activator, partial curve, poor fit].
`Clc1ccccc1-c1nnc(-c2ccccc2CNc2ccccc2)o1` was tested, and the Potency was inconclusive: 100 µM [activator, single point].
`CCC1CCCCN1c1nc(-c2ccncc2)nc2ccccc12` (configuration not stated) was tested, and the Potency was inconclusive: 39.8 µM [activator, single point].
`Cc1ccccc1CCN(C(=O)Cn1nnc2ccccc21)C(C(=O)NC(C)(C)C)c1ccsc1` (configuration not stated) was tested, and the Potency was inconclusive: 15.8 µM [activator, partial curve, poor fit].
In the case of `O=C(COC(=O)Cc1c[nH]c2ccccc12)Nc1cccc2ccccc12`, the Potency is reported as inconclusive: 141 µM [activator, single point].
In the case of `C[C@@H]1CN([C@H](C)CO)C(=O)c2cc(NC(=O)Nc3ccc(F)cc3)ccc2O[C@@H](C)CCCCO[C@H]1CN(C)S(=O)(=O)c1ccc(Cl)cc1`, the activation is reported as inconclusive: 31.3% [activator].
`Cc1ccc(-n2c(C)nc3c(cnn3-c3ccccc3Cl)c2=O)cc1C` was tested, and the Potency was inconclusive: 56.2 µM [activator, single point].
For `Cc1cc(C)n(C(CC(=O)N2CCc3ccccc3C2)C(=O)O)n1` (configuration not stated), the activation was inconclusive: 342% [activator] [at 57.5 µM].
In the case of `O=C(Nc1cccc(F)c1)[C@@H](c1ccccc1)N1Cc2ccccc2C1=O`, the “outcome” value is reported as “inactive”.
In the case of `CCCNC(=O)C1(C)CCN(C(=O)c2ccc(OC)cc2OC)C1` (configuration not stated), the “outcome” value is reported as “inactive”.
For `COCCCNC(=O)CN(c1ccc(Cl)c(Cl)c1)S(C)(=O)=O`, the Potency was inconclusive: 35.5 µM [activator, single point].
For `Cc1nc2c(C(=O)NCCc3ccccc3)c[nH]n2c(=O)c1Cc1ccc(F)cc1Cl`, the “activation” value was inactive: -17.1%.
With `CC(=O)Nc1ccc(NC(=O)Cn2c(=O)ccc3cc(S(=O)(=O)N4CCC(C)CC4)ccc32)cc1` the Potency was inconclusive: 39.8 µM [activator, partial curve, poor fit].
For `CCN(CC)C(=O)c1sc(N2C(=O)Nc3ccccc3N2O)c(C(=O)OC)c1C`, the Potency was inconclusive: 15.8 µM [activator, partial curve].
For `COc1cccc(CN2CCN(C(=O)Nc3ccc([N+](=O)[O-])cc3)CC2)c1`, the Potency was inconclusive: 126 µM [activator, single point].
In the case of `COc1cc(OC)cc(-c2cc3nc(C)c(CCC(=O)Nc4ccc(F)c(Cl)c4)c(C)n3n2)c1`, the Potency is reported as inconclusive: 141 µM [activator, single point].
`Cc1ccc(-c2cn3cccnc3n2)cc1NC(=O)Cc1ccccc1` was tested, and the Potency was inconclusive: 158 µM [activator, single point].
With `CC1CCN(S(=O)(=O)c2ccc3nc(Nc4cccc(C(F)(F)F)c4)ccc3c2)CC1` the activation was inconclusive: -70.9% [activator].
`NC(=S)N=Nc1c(O)[nH]c2ccc(F)cc12` was tested, and the “outcome” value was “inactive”.
`CCCCNC(=O)C1(C)CCCCN1Cc1ccccc1-c1ccccc1` (configuration not stated) was tested, and the “activation” value was inactive: -15.2%.
`COc1cc(-c2nnc(SCC(=O)Oc3ccc(C)cc3C)o2)cc(OC)c1OC` was tested, and the Potency was inconclusive: 126 µM [activator, single point].
`C[C@]12CS(=O)(=O)C[C@H]1SC(=S)N2c1ccccc1` was tested, and the Potency was inconclusive: 79.4 µM [activator, partial curve, poor fit].
For `CCOc1ccc(C(=O)Nc2ccc3nc(SCC(=O)N(C)c4ccccc4)sc3c2)cc1`, the “activation” value was inactive: -54.6%.
In the case of `COCCNC(=O)C(c1ccc(F)cc1)N(Cc1ccccc1)C(=O)CCC(=O)Nc1ccccn1` (configuration not stated), the Potency is reported as inconclusive: 141 µM [activator, single point].
`CN(C)S(=O)(=O)c1ccc(C(=O)Nc2c(C(=O)Nc3ccc(F)cc3)oc3ccccc23)cc1` was tested, and the activation was inconclusive: 30.2% [activator].

— PubChem BioAssay AID743266 (National Center for Advancing Translational Sciences (NCATS), 2014)
Further: nearly all actives have a fitted effect of over 55% in size.
Potency means the concentration at half of the fitted maximal effect.
